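Viability assay of Plasmodium falciparum sporozoites; the read-out is not stated. The concentration is filed as 10 mM, unlikely as a test dose, so the dose is not known. The record gives no direction; compounds that gave an IC50 in retests scored well above the rest, so higher reads as lower viability. Strong results were mostly tested again. Of about 34,000 compounds tested this way, about 280 (0.84%) reached 50% or more in at least one test.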

Results are given as percent effect. The record does not define 0% and 100%; most values in the screen are far below 50% and negative numbers occur (in some assays of this library far below -100). Compounds were drawn at random from those tested, without regard to their results. Two or more numbers in one place are separate tests of the same structure; such repeats can differ widely.

Compound,Percent Effect
CN1CCCC1c1cncc(C(=O)NCC2CC2)n1 (configuration not stated),2.906
O=C(O)C(F)(F)F.[H][C@@]12CCN(Cc3c(C)noc3C)C[C@@]1([H])[C@H](C(=O)NCC1CC1)CCO2,-16.13
COCC(c1cccc(C(F)(F)F)c1)N(C)C(=O)c1ccncc1 (configuration not stated),8.079
CC(C)C(=O)NCCNC(=O)CCOc1cccc(F)c1,3.852
[H][C@]12CCC(=O)N(C)[C@@]1(C)CCCCN2C(=O)CCc1cccnc1,-0.6757
CN1C(=N)NC(=O)/C1=C/c1ccc(-c2ccc(Br)cc2)o1,11.35
[H][C@@]12C[C@H](C(=O)NC)[C@@]([H])(CN(C(=O)Nc3ccc(CC)cc3)C1)O2,-2.346
COCCN(Cc1nc2c(cnn2C)c(=O)[nH]1)C(C)COC (configuration not stated),3.028
Cc1nc(C)n(CC2CN(CCOc3cccc(C#N)c3)CCO2)n1 (configuration not stated),-14.63
O=C(NCC1CCOC1)c1csc(-c2ccc(F)cc2)n1 (configuration not stated),-7.287
Cc1nn(C)c(C)c1CC(=O)NCc1ccnc(N2CCOCC2)c1,-20.79
Cc1cnn(C2CCCN(C(=O)c3ccc(-n4ccnc4)cc3)C2)c1 (configuration not stated),7.618
c1ccc(C2CCCN2Cc2nc(-c3cnccn3)no2)nc1 (configuration not stated),-4.852
[H][C@@]12OCCN(S(=O)(=O)C3CC3)[C@@]1([H])CC[C@H]2OCC1CC1,13.32
Cc1ccc(CCN2CCC(N(C)Cc3noc(C4CC4)n3)C2)cc1 (configuration not stated),1.771
Clc1ccc(C2(CNC3=NCCN3)CC2)cc1.I,1.579
Cc1cccc(CN2CCC(c3nnsc3S(C)(=O)=O)CC2)n1,8.461
Cc1nc(C2CCN(C(=O)c3cscn3)CC2)c2sccn12,1.133
CC(C(=O)NCc1ccnc(N(C)C)c1)n1cccn1 (configuration not stated),0.4965
COc1ccc(COCC(O)CNC(=O)c2cccnc2)cc1 (configuration not stated),8.592
Cc1nn(C)c(Cl)c1C1CCCN1C(=O)c1ccoc1C (configuration not stated),9.982
CS(=O)(=O)N[C@H]1CCO[C@]2(CCN(C(=O)c3ccccn3)C2)C1.O=C(O)C(F)(F)F,-4.381
O=C(O)C(F)(F)F.O=C1NC2(CCN(C(=O)c3ccccc3)CC2)CC1c1cccnc1 (configuration not stated),-13.56
COc1cccc(CN(C)Cc2ccccc2C#N)c1OC,-9.586
NC(=O)Cn1c(CO)cnc1SCC(=O)NCc1ccccc1,-8.385 & -22.91
CCc1ccc(O)c(C(=O)NC2CCN(Cc3ccncc3)CC2)c1,0
CN(C)Cc1cc(C2CCN(C(=O)C3CCCNC3)CC2)nn1C.Cl (configuration not stated),4.692
CCN(C(=O)c1ccc2nnc(C3CCN(C)C3)n2c1)C(C)C.O=C(O)C(F)(F)F (configuration not stated),0.4259
Fc1ccc2[nH]c(C3CCCN3CCc3ccccn3)nc2c1 (configuration not stated),24.04
CNc1ccc(C2CN(c3cc(C)nc(N)n3)CCO2)nc1 (configuration not stated),20.28
CCCn1nc2c(cc1=O)CN(CC(=O)Nc1ccncc1)CC2,0.8889
COc1ncccc1CN1CCc2[nH]nc(C(=O)N3CCCC3C)c2C1.O=C(O)C(F)(F)F.O=C(O)C(F)(F)F (configuration not stated),0.6843
COc1ccc(CN2CCc3sccc3C2C)cc1CN1CCOCC1.Cl (configuration not stated),8.201
COc1cccc2ccn(CC(=O)NCCC(C)C)c12,-26.51 & -37.79
Cc1nccc(CC2COCCN(c3cnccn3)C2)n1 (configuration not stated),3.197
COc1ccc2c3c1CN(C(C)=O)CC3=CC(C)(C)CO2,-44.69
CCOCC1CC2(CCN(C(=O)c3ccc4ccccc4n3)CC2)CO1.O=C(O)C(F)(F)F (configuration not stated),-13.63
Cn1cc(CNC(=O)c2cc3c(s2)CCCCC3)cn1,-12.43
c1cc(CNCC2CNc3ccnn3C2)cc(OC2CCCCC2)n1 (configuration not stated),5.802
Cc1ncc(C(=O)Nc2cncnc2N(C)C)c(Cl)c1Cl,-13.5
COc1ccc(CCN2CC(NCc3ncc[nH]3)CC2=O)cc1 (configuration not stated),-1.692
CS(=O)(=O)N1CCCC12CCN(Cc1ccoc1)CC2,11.27
Cn1ccnc1CN1CCC2(COCCN(Cc3ccsc3)C2)C1 (configuration not stated),-17.23
CC(=O)N1CCN(C(=O)NCc2cccnc2OC(C)C)CC1,10.98
COCC(=O)N1CCC(Cc2nccnc2-c2c(C)n[nH]c2C)C1 (configuration not stated),5.596
CC(C)n1cnnc1CN(C)C(=O)c1ccc[nH]1,-17.95
O=C(O)C(F)(F)F.[H][C@]12CCC[C@@]1(COc1ccccn1)CN(C(=O)CS(C)(=O)=O)C2,-7.089
O=C(O)C(F)(F)F.[H][C@@]12OCCN(C(=O)c3ccc(C)o3)[C@@]1([H])CC[C@@H]2OCc1ccccn1,-16.2
CCN1CCN(C(=O)c2ccc(=O)n(C)c2)c2ccccc21,21.86
CN1CCOC(CNC(=O)CCCOc2ccccc2F)C1 (configuration not stated),51.69 & 61.26 & 47.35
CC(C)Oc1ccc(C(O)CNCc2ccccc2C(F)(F)F)cc1 (configuration not stated),-13.06
CCN(CC1CCOC1)C(=O)c1cc(F)ccc1N1CCN(C)CC1 (configuration not stated),14.4
O=C(Cc1ccsc1)N1CCC[C@@H]1Cn1c(=O)oc2ccccc21,-4.684
CC(=O)N1CCN(CC(N)=O)CC(COc2ccccc2)C1 (configuration not stated),1.308
CC1CCCN(C(=O)NCCCn2cncn2)C1 (configuration not stated),7.315
O=C(O)C(F)(F)F.O=C1CC2(CCN(CC3CC3)C2)CN1c1ccc2c(c1)OCO2 (configuration not stated),-9.06
Cc1nccc(C2CN(Cc3cc[nH]n3)CCO2)n1 (configuration not stated),-19.31
Cc1cc(C)n(CC2CN(CC(=O)Nc3nncs3)CCO2)n1 (configuration not stated),-0.6541
Cc1cc(C)n(CC2CCCN2CC(=O)N(C)C)n1 (configuration not stated),6.56
Brc1csc(-c2noc(C3COCCO3)n2)c1 (configuration not stated),5.088
CN(C)c1cc2c(nn1)CCN(C(=O)C1CCCc3ccccc31)C2 (configuration not stated),-1.504
Cc1nc(CCCNC(=O)c2coc(CN3CCOCC3)c2)sc1C,4.71
Cl.O=C(CCC1CCCC1)NCCn1nc(C2CCNC2)c2nccnc21 (configuration not stated),-8.649

Some entries from above, unchanged:

{"compound": "O=C(O)C(F)(F)F.O=C1NC2(CCN(C(=O)c3ccccc3)CC2)CC1c1cccnc1", "stereo": "configuration not stated", "Percent Effect": -13.56}
{"compound": "[H][C@@]12OCCN(S(=O)(=O)C3CC3)[C@@]1([H])CC[C@H]2OCC1CC1", "Percent Effect": 13.32}
{"compound": "O=C(Cc1ccsc1)N1CCC[C@@H]1Cn1c(=O)oc2ccccc21", "Percent Effect": -4.684}
{"compound": "CCOCC1CC2(CCN(C(=O)c3ccc4ccccc4n3)CC2)CO1.O=C(O)C(F)(F)F", "stereo": "configuration not stated", "Percent Effect": -13.63}
{"compound": "O=C(O)C(F)(F)F.[H][C@@]12CCN(Cc3c(C)noc3C)C[C@@]1([H])[C@H](C(=O)NCC1CC1)CCO2", "Percent Effect": -16.13}
{"compound": "Cc1cccc(CN2CCC(c3nnsc3S(C)(=O)=O)CC2)n1", "Percent Effect": 8.461}
{"compound": "Cl.O=C(CCC1CCCC1)NCCn1nc(C2CCNC2)c2nccnc21", "stereo": "configuration not stated", "Percent Effect": -8.649}

From ChEMBL document CHEMBL3988442, “University of Dundee, Small-Polar-MMV Screening Library” (2021).